Results published in paper PMC10039853.
These are yes or no findings as the source states them, for the method shown. Some results given as binding are weak or reduced against the parent protein; the word gives no strength.

B1: anti-hen egg lysozyme VHH D3-L11 mutant A79I (VHH)
VHH: DVQLVESGGGSVQAGGSLRLSCAASGSTDSIEYMTWFRQAPGKAREGVAALYTHTGNTYYTDSVKGRFTISQDKAKNMIYLRMDSVKSEDTAIYTCGATRKYVPVRFALDQSSYDYWGQGTQVTVSS
B2: anti-hen egg lysozyme (HEL) VHH D3-L11, wild type (VHH)
VHH: DVQLVESGGGSVQAGGSLRLSCAASGSTDSIEYMTWFRQAPGKAREGVAALYTHTGNTYYTDSVKGRFTISQDKAKNMAYLRMDSVKSEDTAIYTCGATRKYVPVRFALDQSSYDYWGQGTQVTVSS

Biological target: hen egg lysozyme (hen (egg)) (UniProt P00698)
Experiment: ELISA; lysozyme (1 ug/mL) coated on a 384-well MaxiSorp plate overnight at 4 C; serial concentrations of VHH in 5% BlockingOne in TBST, 1 h at room temperature; detected with Penta-His HRP conjugate; both purified

Binder | binding
B1 | binds
B2 | binds
